# Structures can show the parent of a compound that is named as a salt. The list shows a part of the results. This data set is noisy: repeats of one test often differ as much as different tests do.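 Wild-type human LRH-1, a heavily sumoylated nuclear receptor, is tetracycline-inducible in stable JEG3 cells. RT-qPCR measured SUMO-sensitive APOC3 and MUC1 transcripts, which rise with SUMO-less LRH-1 or UBC9 knockdown, versus TBP and DMSO controls. Robust Z-scores beyond ±2 flagged primary hits, followed by toxicity and TBP filtering.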
# System: JEG3 expressing hLRH-1
# Experiment: APOC3 transcript change (ddCt vs TBP and DMSO), Z-score over library; higher = higher APOC3 expression
# Details: 10 µM; time (hr): 24
row,SMILES,APOC3 transcript change (Z-score)
1,COc1ccccc1O [guaiacol],-0.509
2,CN1CCc2cccc3c2C1Cc1ccc(O)c(O)c1-3 (centres undefined) [apomorphine hydrochloride],0.77
3,COc1cnc(NS(=O)(=O)c2ccc(N)cc2)nc1 [sulfameter],0.239
4,Cc1cnc(C(=O)NCCc2ccc(S(=O)(=O)NC(=O)NC3CCCCC3)cc2)cn1 [Glipizide],-1.39
5,NC[C@H]1O[C@H](O[C@H]2[C@H](O)[C@@H](O[C@H]3O[C@H](CO)[C@@H](O)[C@H](N)[C@H]3O)[C@H](N)C[C@@H]2N)[C@H](N)C[C@@H]1O [tobramycin],0.41
6,CCc1nc(N)nc(N)c1-c1ccc(Cl)cc1 [pyrimethamine],-0.011
7,O=S(=O)(O)c1cc(I)c(O)c2ncccc12 [chiniofon],-0.0719
8,CCN(CC)CCOC(=O)C(c1ccccc1)C1CCCCC1 (centres undefined) [drofenine hydrochloride],-1.48
9,OC[C@H]1O[C@@H](O[C@H]2[C@H](O)[C@@H](O)[C@@H](O)O[C@@H]2CO)[C@H](O)[C@@H](O)[C@H]1O [lactose monohydrate],0.446
10,COc1ccc(-c2cc(=O)c3c(O)cc(O[C@@H]4O[C@H](CO[C@@H]5O[C@@H](C)[C@H](O)[C@@H](O)[C@H]5O)[C@@H](O)[C@H](O)[C@H]4O)cc3o2)cc1O [diosmin],0.163
11,COc1ccc(C(=O)c2ccc(C)cc2)c(O)c1 [mexeneone],0.0105
12,NC(=O)NC(=O)Cc1ccccc1 [phenacemide],-0.324
13,Clc1ccc(COC(Cn2ccnc2)c2ccc(Cl)cc2Cl)cc1 (centres undefined) [econazole nitrate],0.446
14,O=C(O)c1ccccc1 [benzoic acid],0.263
15,C[n+]1ccccc1/C=N/O [Pralidoxime iodide],-0.178
16,OC[C@@H](O)[C@@H](O[C@@H]1O[C@H](CO)[C@H](O)[C@H](O)[C@H]1O)[C@H](O)[C@@H](O)CO [lacitol],-0.602
17,CC(=O)Oc1ccccc1C(=O)Nc1ncc([N+](=O)[O-])s1 [nitazoxanide],0.447
18,Cc1cc2c(cc1S(N)(=O)=O)S(=O)(=O)CCC2 [meticrane],0.0172
19,O=C1[O][Bi]([OH])[O]c2ccccc21 [bismuth subsalicylate],1.46
20,CC1(C)C(C(=O)O)N2C(=O)C[C@H]2S1(=O)=O (some centres undefined) [sulbactam],4.29
21,CO/N=C(\C(=O)N[C@@H]1C(=O)N2C(C(=O)O)=C(C[N+]3(C)CCCC3)CS[C@H]12)c1csc(N)n1 [cefepime hydrochloride],0.76
22,COc1cc2c(cc1OC)C(=O)C(CC1CCN(Cc3ccccc3)CC1)C2 (centres undefined) [donepizil hydrochloride],0.283
23,CC(=O)N[C@@H](Cc1ccccc1)C(=O)O [afalanine],-0.451
24,CCCCC(=O)O[C@]1(C(=O)CO)CC[C@H]2[C@@H]3CCC4=CC(=O)CC[C@]4(C)[C@H]3[C@@H](O)C[C@@]21C [hydrocortisone valerate],0.643
25,Cc1noc(NS(=O)(=O)c2ccc(N)cc2)c1C [sulfisoxazole],-0.0918
26,c1ccc([C@H]2CN3CCSC3=N2)cc1 [levamisole hydrochloride],-0.316
27,COc1cc2nc(N(C)CCCNC(=O)C3CCCO3)nc(N)c2cc1OC (centres undefined) [alfuzosin hydrochloride],0.462

row,SMILES,APOC3 transcript change (Z-score)
1,O=C(Nc1ccccc1)c1ccccc1O [salicylanilide],0.275
2,CC(C)COC(=O)c1ccc(N)cc1 [isobutamben],0.136
3,CC(=O)CC(c1ccccc1)c1c(O)oc2ccccc2c1=O (centres undefined) [warfarin],-0.534
4,C=CCSCC1Nc2cc(Cl)c(S(N)(=O)=O)cc2S(=O)(=O)N1 (centres undefined) [althiazide],1.1
5,Cc1cc(/C=C/c2ccc3cc(N(C)C)ccc3[n+]2C)c(C)n1-c1ccccc1 [pyrvinium pamoate],0.278
6,C[C@@H]1CC2C3CCC4=CC(=O)C=C[C@]4(C)[C@@]3(F)[C@@H](O)C[C@]2(C)[C@H]1C(=O)CO (some centres undefined) [desoxymetasone],1.15
7,CC(=O)O[C@H]1C(=O)[C@@]2(C)C([C@H](OC(=O)c3ccccc3)[C@]3(O)C[C@H](OC(=O)[C@H](O)[C@@H](NC(=O)c4ccccc4)c4ccccc4)C(C)=C1C3(C)C)[C@]1(OC(C)=O)CO[C@@H]1C[C@@H]2O (some centres undefined) [Taxol],2.93
8,C/C=C(/C(=C/C)c1ccc(O)cc1)c1ccc(O)cc1 [dienestrol],-1.63
9,CC(=O)Nc1ccc(O)cc1 [acetaminophen],0.564
10,CC(C)(C(=O)O)c1ccc(C(O)CCCN2CCC(C(O)(c3ccccc3)c3ccccc3)CC2)cc1 (centres undefined) [fexofenadine hydrochloride],0.52
11,NCCCC(N)C(=O)O (centres undefined) [ornithine aketoglutarate],0.834
12,O=C(Nc1ccccc1)OCC(CN1CCCCC1)OC(=O)Nc1ccccc1 (centres undefined) [diperodon hydrochloride],0.887
13,NC(Cc1ccc(O)cc1)C(=O)O (centres undefined) [tyrosine],-0.172
14,N=C(N)N/N=C/c1c(Cl)cccc1Cl [guanabenz acetate],-0.258
15,Cc1ccc2c(Cl)cc(Cl)c(O)c2n1 [chlorquinaldol],-1.52
16,CN(C)CCOC(=O)COc1ccc(Cl)cc1 [meclofenoxate hydrochloride],0.19
17,O=C(O)c1ccccc1OP(=O)(O)O [fosfosal],-0.777
18,COC(=O)N/N=C/c1c[n+]([O-])c2ccccc2[n+]1[O-] [carbadox],0.249
19,COC(=O)C(N)CS (centres undefined) [mecysteine hydrochloride],0.164
20,CC(N)C12CC3CC(CC(C3)C1)C2 (centres undefined) [rimantadine hydrochloride],0.111
21,O=C(O)c1cc(-c2ccccc2)nc2ccccc12 [cinchophen],0.77
22,COc1ccc2cc1Oc1ccc(cc1)C[C@H]1c3c(cc4c(c3Oc3cc5c(cc3OC)CCN(C)[C@@H]5C2)OCO4)CCN1C [cepharanthine],1.31
23,O=C1c2ccccc2C(=O)C1c1ccccc1 [phenindione],0.624
24,CN1CC(=O)N=C1N [creatinine],0.527
25,CN1CCN2c3ccccc3Cc3ccccc3C2C1 (centres undefined) [Mianserin hydrochloride],0.756
26,CCC(C)C1NC(=O)C(CCN)NC(=O)C(NC(=O)C(CCN)NC(=O)C(NC(=O)C(CCN)NC(=O)CCCCC(C)C)C(C)O)CCNC(=O)C(C(C)O)NC(=O)C(CCN)NC(=O)C(CCN)NC(=O)C(C(C)CC)NC1=O (centres undefined) [colistin sulfate],0.679
27,Cc1scc2c1N(C(=O)CN1CCN(C)CC1)c1ccccc1NC2=O [Telenzepine dihydrochloride],0.0442

# Looked up by compound from above:
row,SMILES,APOC3 transcript change (Z-score)
23,O=C1c2ccccc2C(=O)C1c1ccccc1 [phenindione],0.624
26,CCC(C)C1NC(=O)C(CCN)NC(=O)C(NC(=O)C(CCN)NC(=O)C(NC(=O)C(CCN)NC(=O)CCCCC(C)C)C(C)O)CCNC(=O)C(C(C)O)NC(=O)C(CCN)NC(=O)C(CCN)NC(=O)C(C(C)CC)NC1=O (centres undefined) [colistin sulfate],0.679
11,NCCCC(N)C(=O)O (centres undefined) [ornithine aketoglutarate],0.834
20,CC(N)C12CC3CC(CC(C3)C1)C2 (centres undefined) [rimantadine hydrochloride],0.111
6,C[C@@H]1CC2C3CCC4=CC(=O)C=C[C@]4(C)[C@@]3(F)[C@@H](O)C[C@]2(C)[C@H]1C(=O)CO (some centres undefined) [desoxymetasone],1.15
16,CN(C)CCOC(=O)COc1ccc(Cl)cc1 [meclofenoxate hydrochloride],0.19

# The listing continues:

row,SMILES,APOC3 transcript change (Z-score)
1,OC[C@H]1O[C@@H](O[C@@H]2[C@@H](CO)OC(O)(CO)[C@H]2O)[C@H](O)[C@@H](O)[C@H]1O (mixture of isomers) [lactulose],-1.36
2,CN(C)CCC(c1ccc(Br)cc1)c1ccccn1 (centres undefined) [brompheniramine maleate],-0.383
3,CCCC(=O)Nc1ncnc2c1ncn2[C@@H]1O[C@@H]2COP(=O)(O)O[C@H]2[C@H]1OC(=O)CCC [bucladesine],0.437
4,O=C(O)CCCc1ccccc1 [phenylbutyric acid],0.483
5,CC1=CC(=O)NS(=O)(=O)O1 [acesulfame potassium],-0.0268
6,CCOc1cc(CC(=O)N[C@@H](CC(C)C)c2ccccc2N2CCCCC2)ccc1C(=O)O [repaglinide],-0.00412
7,O=C1C(O)=C(O)O[C@@H]1C(O)CO (some centres undefined) [ascorbic acid],0.566
8,CN[C@@H]1C(OC2[C@H](O[C@H]3[C@H](O)[C@@H](O)[C@H](N=C(N)N)[C@@H](O)[C@@H]3N=C(N)N)OC(C)[C@]2(O)CO)OC(CO)C(O)C1O (some centres undefined) [dihydrostreptomycin sulfate],1.04
9,CN(C)C(=N)N=C(N)N [metformin hydrochloride],0.959
10,CCN1CCN(C(=O)N[C@@H](C(=O)N[C@@H]2C(=O)N3[C@@H]2SC(C)(C)[C@@H]3C(=O)O)c2ccccc2)C(=O)C1=O [piperacillin sodium],0.416
11,CC(=O)Oc1cccc(O)c1 [resorcinol monoacetate],0.255
12,CN(C)CCc1c[nH]c2ccc(Cn3cncn3)cc12 [rizatriptan benzoate],-1.26
13,COc1ccc(NS(=O)(=O)c2ccc(N)cc2)nn1 [sulfamethoxypyridazine],0.483
14,O=C(CCBr)N1CCN(C(=O)CCBr)CC1 [pipobroman],-0.346
15,Cc1ccc(S(=O)(=O)NC(=O)NN2CC3CCCC3C2)cc1 (centres undefined) [gliclazide],0.422
16,CO[C@@]1(NC(=O)Cc2cccs2)C(=O)N2C(C(=O)O)=C(COC(N)=O)CS[C@@H]21 [cefoxitin sodium],-0.207
17,CC1(C)OC(=O)NC1=O [dimethadione],0.431
18,C=C[C@H]1CN2CC[C@H]1C[C@@H]2[C@H](O)c1ccnc2ccc(OC)cc12 [quinine sulfate],1.08
19,Cc1ncc(CSSCc2cnc(C)c(O)c2CO)c(CO)c1O [pyritinol],-0.256
20,C=C1C[C@H]2[C@@H]3C=C(C)C4=CC(=O)CC[C@]4(C)[C@H]3CC[C@]2(C)[C@@]1(OC(C)=O)C(C)=O [melengestrol acetate],0.049
21,CC(C(=O)O)c1ccc(N2Cc3ccccc3C2=O)cc1 (centres undefined) [indoprofen],0.112
22,O=C(O)c1cc(=O)c2ccccc2o1 [chromocarb],0.301
23,CC(=O)c1ccc2c(c1)N(CCCN1CCC(CCO)CC1)c1ccccc1S2 [piperacetazine],0.0402
24,COc1cc(/C=C/C(N)=O)cc(OC)c1OC [cintriamide],0.37
25,NCCS(=O)(=O)O [taurine],-0.788

# — the supplement of paper PMC4749390
